Experimental data reported in article PMC5640428.

T1: native KCC2 (K+-Cl- cotransporter KCC2) (mouse (endogenous in brain)) (UniProt Q91V14)
T1 sequence: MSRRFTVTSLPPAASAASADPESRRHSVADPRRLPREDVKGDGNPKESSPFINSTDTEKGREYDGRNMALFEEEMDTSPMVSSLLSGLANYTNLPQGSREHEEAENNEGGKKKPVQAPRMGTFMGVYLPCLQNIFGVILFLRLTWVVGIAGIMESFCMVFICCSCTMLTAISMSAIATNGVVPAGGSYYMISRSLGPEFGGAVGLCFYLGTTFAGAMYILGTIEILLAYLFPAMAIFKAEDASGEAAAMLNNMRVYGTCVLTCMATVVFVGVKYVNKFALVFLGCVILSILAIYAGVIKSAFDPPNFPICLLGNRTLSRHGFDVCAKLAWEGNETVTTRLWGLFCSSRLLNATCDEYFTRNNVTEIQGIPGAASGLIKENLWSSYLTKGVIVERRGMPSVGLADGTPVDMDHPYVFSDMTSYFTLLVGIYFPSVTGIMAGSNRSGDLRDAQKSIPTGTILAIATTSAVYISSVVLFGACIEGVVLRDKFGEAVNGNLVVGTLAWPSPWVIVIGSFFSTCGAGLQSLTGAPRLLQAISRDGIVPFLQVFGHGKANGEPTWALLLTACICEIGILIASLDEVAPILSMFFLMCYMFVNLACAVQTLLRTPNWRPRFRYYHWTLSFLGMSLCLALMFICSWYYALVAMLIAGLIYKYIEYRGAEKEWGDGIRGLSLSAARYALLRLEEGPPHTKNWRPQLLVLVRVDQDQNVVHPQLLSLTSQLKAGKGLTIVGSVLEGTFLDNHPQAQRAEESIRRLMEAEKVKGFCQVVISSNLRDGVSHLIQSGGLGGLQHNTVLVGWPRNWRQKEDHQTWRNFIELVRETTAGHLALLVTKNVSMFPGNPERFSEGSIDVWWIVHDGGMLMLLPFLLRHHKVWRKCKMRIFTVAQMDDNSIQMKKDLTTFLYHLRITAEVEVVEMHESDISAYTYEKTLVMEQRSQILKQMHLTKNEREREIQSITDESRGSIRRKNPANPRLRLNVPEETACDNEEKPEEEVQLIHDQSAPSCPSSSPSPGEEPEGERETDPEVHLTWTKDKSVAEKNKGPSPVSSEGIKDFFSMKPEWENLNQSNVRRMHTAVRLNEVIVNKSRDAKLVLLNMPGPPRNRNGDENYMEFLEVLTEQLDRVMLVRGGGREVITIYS


Molecular target: T1, native KCC2 (K+-Cl- cotransporter KCC2) (mouse (endogenous in brain))
Experiment: affinity purification with mass spectrometry; C-terminal pan-KCC2 antibody (5 µg) on beads; CHAPS-solubilised membrane fractions (1 mg) of P50 mouse brain; parallel IgG control

Row | Binder | binding
1 | SLC44A1 (protein, UniProt Q6X893 1-653) MGCCSSASAAQSSKREWKPLEDRSCTDIPWLLLFVLFCIGMGFICGFSVATGAAARLVSGYDSYGNICGQRNAKLEAIPNSGLDHTHRKYVFFLDPCNLDLINRKIKSIALCVAACPRQELKTLSDVQKFAEINGSALCSYNIKPSEYTLTSKSSGFCPKLPVPASAPIPFFHRCAPVNISCYAKFAEALITFVSDNSVLHRLISGVMTSKEIILGLCLLSLVLSMILMVIIRYISRVLVWILTVLVILGSLGGTGVLWWLYAKQRRSPKEAVIPEQLQIAEDNLRALLIYAISATVFTVILFLIMLVMRKRVALTIALFHVAGKVFIHLPLLVFQPFWTFFALVLFWAYWIMTLLFLGTTGSAVQNEQGFVEYKISGPLQYMWWYHVVGLIWISEFILACQQMTVAGAVVTYYFTRDKRNLPFTPILASVNRLIRYHLGTVAKGSFIITLVKIPRMVLMYIHSQLKGKENACARCMLKSCICCLWCLEKCLSYLNQNAYTATAINSTNFCTSAKDAFVILVENALRVAAINTVGDFMLFLGKVLIVCSTGLAGIMLLNYQQDYTVWVLPLIIVCLFAFLVAHCFLSIYEMVVDVLFLCFAIDTKYNDGSPGREFYMDKVLMEFVENSRKAMKEAGKGGAADARELKPMLRKR | binds
2 | CD47 (protein, UniProt Q61735 19-303) QLLFSNVNSIEFTSCNETVVIPCIVRNVEAQSTEEMFVKWKLNKSYIFIYDGNKNSTTTDQNFTSAKISVSDLINGIASLKMDKRDAMVGNYTCEVTELSREGKTVIELKNRTVSWFSPNEKILIVIFPILAILLFWGKFGILTLKYKSSHTNKRIILLLVAGLVLTVIVVVGAILLIPGEKPVKNASGLGLIVISTGILILLQYNVFMTAFGMTSFTIAILITQVLGYVLALVGLCLCIMACEPVHGPLLISGLGIIALAELLGLVYMKFVASNQRTIQPPRNR | binds
3 | RNF8 (protein, UniProt Q8VC56 1-488) MGEPDPLVSGQLAARRSWCLRRLGMDCEWLQLEAGTEVTIGRGLSVTYQLISKVCPLMISRSHCVLKQNPEGQWTIMDNKSLNGVWLNRERLAPLQGYCIRKGDHIQLGVPLESRETAEYEYEVIEEDWESLAPCLAPKNDQRMEKHKGSRTKRKFSSPGLENLPAEGSSDLRCPLANVASKPIEPEKLHGKGDASSQSLGCLCPGLTSLKASERAAGPHACSALPKVLELSCPKKQKACRPSASQNSLELFKVTMSRMLKLKTQMQEKQIAVLNVKRQTRKGSSKKIVRMEKELRNLQSQLYAEQAQQQARVEQLEKTFQEEAHYLQGLEKEQGECDLKQQLVQALQEHQALMEELNCSKKDFEKIIQAKNKELEQTKEEKDKVQAQKEEVLSHMNDLLENELQCIICSEYFIEAVTLNCAHSFCSFCINEWMKRKVECPICRKDIESRTNSLVLDNCISKMVDNLSSDVKERRSVLIRERRAKRLS | binds

These are yes or no findings as the source states them, for the method shown. Binding seen in cells or lysates may run through a third protein. A yes stands for co-enrichment or nearness to the bait. Other partners may have been found.
